Experimental data from publication PMC9757077, “The B. subtilis Rok protein is an atypical H-NS-like protein irresponsive to physico-chemical cues”.
Results are given in words; binding and its absence hold for the method and conditions named. Binding can be weak; no strength is given. Sequences can lack the tags named with a protein.

Biological target: T1, Rok with a C-terminal His-tag (Rok-6xHis) (B. subtilis 168) (UniProt O34857)
T1 sequence: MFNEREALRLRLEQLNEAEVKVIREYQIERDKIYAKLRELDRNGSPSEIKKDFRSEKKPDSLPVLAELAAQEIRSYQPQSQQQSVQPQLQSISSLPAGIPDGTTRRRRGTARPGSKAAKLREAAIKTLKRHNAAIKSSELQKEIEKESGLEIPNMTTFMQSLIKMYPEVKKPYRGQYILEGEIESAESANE
Assay: pull-down; Rok-6xHis captured on HisPur Ni-NTA magnetic beads, sRok without His-tag added in 1:1 molar ratio (8.75 uM final); 20 mM Tris-HCl pH 8.0, 500 mM KCl, 50 mM imidazole, 3.5% glycerol, 0.05% Tween, 0.8 mg/ml acetylated BSA; eluted with 500 mM imidazole; SDS-PAGE, Coomassie; both purified

binding: binds
Substance: small Rok (sRok) (B. subtilis (plasmid pLS20))
